Read-outs that look alike come from different tables or passages of the source. No constants are given. Whether binding was seen depends on the method and setting. For some of these results: In cells and extracts the contact can be indirect. Some binding calls cover weakened binding; strength is not graded here.

Chains of the proteins cited; added tags and fusions are not shown.
UniProt Q9BVS4: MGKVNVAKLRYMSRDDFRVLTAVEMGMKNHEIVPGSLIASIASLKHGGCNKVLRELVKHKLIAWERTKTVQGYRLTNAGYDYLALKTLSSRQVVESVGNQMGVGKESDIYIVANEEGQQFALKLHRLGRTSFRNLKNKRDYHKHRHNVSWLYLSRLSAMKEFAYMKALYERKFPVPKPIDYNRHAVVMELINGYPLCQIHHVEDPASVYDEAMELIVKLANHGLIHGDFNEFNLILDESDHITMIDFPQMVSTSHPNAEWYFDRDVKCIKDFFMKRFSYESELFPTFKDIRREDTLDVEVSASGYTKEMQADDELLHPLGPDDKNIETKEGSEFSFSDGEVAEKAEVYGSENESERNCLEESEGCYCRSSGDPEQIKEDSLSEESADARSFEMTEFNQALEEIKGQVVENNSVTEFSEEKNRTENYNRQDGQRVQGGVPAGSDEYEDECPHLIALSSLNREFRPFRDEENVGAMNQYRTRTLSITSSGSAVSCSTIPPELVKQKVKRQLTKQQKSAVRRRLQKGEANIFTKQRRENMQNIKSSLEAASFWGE
UniProt O00425: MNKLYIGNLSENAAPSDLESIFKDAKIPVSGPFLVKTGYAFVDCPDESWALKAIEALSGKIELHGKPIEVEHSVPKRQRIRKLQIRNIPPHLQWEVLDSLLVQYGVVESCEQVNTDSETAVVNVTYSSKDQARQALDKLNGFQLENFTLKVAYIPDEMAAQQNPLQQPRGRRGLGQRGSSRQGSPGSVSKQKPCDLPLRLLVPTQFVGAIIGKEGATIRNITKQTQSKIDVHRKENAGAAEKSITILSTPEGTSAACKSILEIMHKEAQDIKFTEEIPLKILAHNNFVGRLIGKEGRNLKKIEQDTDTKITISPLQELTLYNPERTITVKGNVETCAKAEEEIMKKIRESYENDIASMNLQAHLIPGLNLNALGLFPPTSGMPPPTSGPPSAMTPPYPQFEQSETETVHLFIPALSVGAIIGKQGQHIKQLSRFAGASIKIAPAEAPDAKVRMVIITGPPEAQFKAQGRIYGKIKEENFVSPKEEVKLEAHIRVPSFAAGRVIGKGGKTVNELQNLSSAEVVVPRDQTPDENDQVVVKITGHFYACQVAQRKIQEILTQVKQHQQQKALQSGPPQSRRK
UniProt Q99700: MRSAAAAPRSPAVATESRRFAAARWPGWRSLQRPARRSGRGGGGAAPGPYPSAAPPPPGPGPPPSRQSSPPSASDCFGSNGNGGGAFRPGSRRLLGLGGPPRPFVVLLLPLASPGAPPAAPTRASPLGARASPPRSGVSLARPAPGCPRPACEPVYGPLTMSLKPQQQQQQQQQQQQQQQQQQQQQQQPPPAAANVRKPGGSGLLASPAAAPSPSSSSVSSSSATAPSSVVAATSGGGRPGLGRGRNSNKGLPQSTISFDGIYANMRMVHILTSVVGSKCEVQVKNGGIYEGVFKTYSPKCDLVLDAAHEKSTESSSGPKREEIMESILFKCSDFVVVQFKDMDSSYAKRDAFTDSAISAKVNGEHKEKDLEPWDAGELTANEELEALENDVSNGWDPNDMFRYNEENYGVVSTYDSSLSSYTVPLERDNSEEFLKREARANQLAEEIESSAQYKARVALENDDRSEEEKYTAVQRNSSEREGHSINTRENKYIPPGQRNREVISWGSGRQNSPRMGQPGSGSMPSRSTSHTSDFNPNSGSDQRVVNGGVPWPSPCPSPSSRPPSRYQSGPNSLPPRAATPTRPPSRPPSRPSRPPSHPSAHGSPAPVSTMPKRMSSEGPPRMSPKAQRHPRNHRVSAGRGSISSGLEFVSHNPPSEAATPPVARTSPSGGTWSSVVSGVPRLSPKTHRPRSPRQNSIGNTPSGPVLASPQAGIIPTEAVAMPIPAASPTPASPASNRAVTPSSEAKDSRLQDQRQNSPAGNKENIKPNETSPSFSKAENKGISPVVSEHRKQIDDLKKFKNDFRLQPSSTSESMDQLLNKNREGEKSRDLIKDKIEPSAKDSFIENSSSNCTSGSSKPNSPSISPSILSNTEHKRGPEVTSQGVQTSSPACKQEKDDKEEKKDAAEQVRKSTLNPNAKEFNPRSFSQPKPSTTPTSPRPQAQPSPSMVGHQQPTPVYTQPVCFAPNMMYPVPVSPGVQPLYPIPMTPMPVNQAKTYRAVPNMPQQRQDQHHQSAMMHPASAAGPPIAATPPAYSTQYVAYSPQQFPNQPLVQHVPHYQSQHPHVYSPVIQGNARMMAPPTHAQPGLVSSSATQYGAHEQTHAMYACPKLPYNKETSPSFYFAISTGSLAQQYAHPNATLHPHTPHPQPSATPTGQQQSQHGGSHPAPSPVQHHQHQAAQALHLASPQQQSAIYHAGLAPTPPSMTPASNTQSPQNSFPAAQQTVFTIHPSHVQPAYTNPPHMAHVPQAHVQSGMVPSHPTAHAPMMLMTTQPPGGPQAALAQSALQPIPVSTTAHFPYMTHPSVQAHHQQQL

Test [1] concerns the target RIOK2 (right open reading frame kinase 2), endogenous (human (endogenous in U87MG-EGFRvIII, GBM301, GBM39, hNPCs)) (UniProt Q9BVS4). Briefly: co-IP.
Test [2] addresses FLAG-tagged wild-type RIOK2 (RIOK2^WT-FLAG) (human) (UniProt Q9BVS4). Briefly: co-IP.
Test [3] deals with RIOK2 (right open reading frame kinase 2), endogenous (human (endogenous in U87MG-EGFRvIII, GBM301, GBM39, hNPCs)) (UniProt Q9BVS4). The experiment in a line: cross-linking + co-IP.
Test [4] concerns the target recombinant RIOK2 protein (Origene, cat#TP602270) (UniProt Q9BVS4). The experiment in a line: co-IP.
Test [5] has as its target IMP3 (IGF2BP3), endogenous (human (endogenous in U87MG, U87MG-EGFRvIII, GBM301, GBM39, hNPCs)) (UniProt O00425). Briefly: co-IP.
For test [6] the target is unchanged. The experiment in a line: co-IP. The source holds these as a separate data set.

Take “IMP3 (IGF2BP3), endogenous (from UniProt O00425 1-579)”: the binding result in test [1], in test [2] and in test [3] was “binds” in each case.
As for ATXN2 (from UniProt Q99700 1-1313), the binding entry in test [3] is listed as “binds”.
Take “recombinant IMP3 protein (Origene, cat#TP760798) (from UniProt O00425 1-579)”: in test [4], the binding result was “binds”.
“RIOK2 (right open reading frame kinase 2), endogenous (from UniProt Q9BVS4 1-552)”: the binding result in test [5] is recorded as “binds”.

B1: NOB1 (protein, UniProt Q9ULX3 1-412)
chain: MAPVEHVVADAGAFLRHAALQDIGKNIYTIREVVTEIRDKATRRRLAVLPYELRFKEPLPEYVRLVTEFSKKTGDYPSLSATDIQVLALTYQLEAEFVGVSHLKQEPQKVKVSSSIQHPETPLHISGFHLPYKPKPPQETEKGHSACEPENLEFSSFMFWRNPLPNIDHELQELLIDRGEDVPSEEEEEEENGFEDRKDDSDDDGGGWITPSNIKQIQQELEQCDVPEDVRVGCLTTDFAMQNVLLQMGLHVLAVNGMLIREARSYILRCHGCFKTTSDMSRVFCSHCGNKTLKKVSVTVSDDGTLHMHFSRNPKVLNPRGLRYSLPTPKGGKYAINPHLTEDQRFPQLRLSQKARQKTNVFAPDYIAGVSPFVENDISSRSATLQVRDSTLGAGRRRLNPNASRKKFVKKR
In the case of B1, the binding entry in test [6] is reported as “no binding”.

For the origin of these results see doi:10.1101/2020.12.07.413385.
